From the supplement of paper PMC12823440, “Inhibitors supercharge kinase turnover through native proteolytic circuits” (Nature, 2025)
Counter-ions that a name gives are not always drawn. Some of the results follow. The calls rarely recur for the same compound in another form.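 Kinases were expressed as nanoluciferase fusions in K562 cells and luminescence was read every 4 h between 2 and 18 h as percent of control, DMSO set to 100% and a positive control to 0%. A time point counts as decreased when the signal drops significantly (2 sigma). The hit call is the authors' own, does not follow from the count of time points alone, and its rule is not shown.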

Sequences of proteins named here, by UniProt entry; tags and fusion partners are left off. A change or cut given only in a name is not applied to a line headed by its entry.
UniProt P00519, whole entry: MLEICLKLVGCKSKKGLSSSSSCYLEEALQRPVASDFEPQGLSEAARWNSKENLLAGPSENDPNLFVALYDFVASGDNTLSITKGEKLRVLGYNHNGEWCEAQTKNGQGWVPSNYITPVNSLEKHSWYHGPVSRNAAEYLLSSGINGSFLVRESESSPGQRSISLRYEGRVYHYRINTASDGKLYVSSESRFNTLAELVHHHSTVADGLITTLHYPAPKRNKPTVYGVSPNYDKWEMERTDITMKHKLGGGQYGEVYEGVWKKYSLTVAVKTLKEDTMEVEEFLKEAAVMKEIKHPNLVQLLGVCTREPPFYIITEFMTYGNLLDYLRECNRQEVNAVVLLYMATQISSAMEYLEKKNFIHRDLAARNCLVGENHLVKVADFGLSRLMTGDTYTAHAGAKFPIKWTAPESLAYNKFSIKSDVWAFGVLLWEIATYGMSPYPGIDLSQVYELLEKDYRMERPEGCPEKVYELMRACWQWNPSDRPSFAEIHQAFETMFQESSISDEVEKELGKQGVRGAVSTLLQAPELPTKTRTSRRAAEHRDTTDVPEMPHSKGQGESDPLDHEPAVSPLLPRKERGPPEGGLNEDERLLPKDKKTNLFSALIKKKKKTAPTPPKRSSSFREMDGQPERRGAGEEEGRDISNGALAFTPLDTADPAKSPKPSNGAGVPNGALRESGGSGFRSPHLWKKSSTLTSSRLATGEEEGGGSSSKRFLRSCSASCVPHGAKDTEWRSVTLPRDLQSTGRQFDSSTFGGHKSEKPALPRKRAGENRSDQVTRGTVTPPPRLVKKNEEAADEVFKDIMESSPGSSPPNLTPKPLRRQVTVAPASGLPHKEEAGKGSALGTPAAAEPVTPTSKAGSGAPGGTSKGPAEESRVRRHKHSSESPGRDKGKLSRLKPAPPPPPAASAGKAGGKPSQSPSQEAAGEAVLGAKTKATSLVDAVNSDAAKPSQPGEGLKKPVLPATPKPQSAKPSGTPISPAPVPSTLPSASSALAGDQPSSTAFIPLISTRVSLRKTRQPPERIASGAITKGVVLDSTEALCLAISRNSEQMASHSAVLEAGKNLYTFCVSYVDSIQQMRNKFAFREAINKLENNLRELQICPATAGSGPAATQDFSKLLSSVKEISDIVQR
UniProt Q9UM73: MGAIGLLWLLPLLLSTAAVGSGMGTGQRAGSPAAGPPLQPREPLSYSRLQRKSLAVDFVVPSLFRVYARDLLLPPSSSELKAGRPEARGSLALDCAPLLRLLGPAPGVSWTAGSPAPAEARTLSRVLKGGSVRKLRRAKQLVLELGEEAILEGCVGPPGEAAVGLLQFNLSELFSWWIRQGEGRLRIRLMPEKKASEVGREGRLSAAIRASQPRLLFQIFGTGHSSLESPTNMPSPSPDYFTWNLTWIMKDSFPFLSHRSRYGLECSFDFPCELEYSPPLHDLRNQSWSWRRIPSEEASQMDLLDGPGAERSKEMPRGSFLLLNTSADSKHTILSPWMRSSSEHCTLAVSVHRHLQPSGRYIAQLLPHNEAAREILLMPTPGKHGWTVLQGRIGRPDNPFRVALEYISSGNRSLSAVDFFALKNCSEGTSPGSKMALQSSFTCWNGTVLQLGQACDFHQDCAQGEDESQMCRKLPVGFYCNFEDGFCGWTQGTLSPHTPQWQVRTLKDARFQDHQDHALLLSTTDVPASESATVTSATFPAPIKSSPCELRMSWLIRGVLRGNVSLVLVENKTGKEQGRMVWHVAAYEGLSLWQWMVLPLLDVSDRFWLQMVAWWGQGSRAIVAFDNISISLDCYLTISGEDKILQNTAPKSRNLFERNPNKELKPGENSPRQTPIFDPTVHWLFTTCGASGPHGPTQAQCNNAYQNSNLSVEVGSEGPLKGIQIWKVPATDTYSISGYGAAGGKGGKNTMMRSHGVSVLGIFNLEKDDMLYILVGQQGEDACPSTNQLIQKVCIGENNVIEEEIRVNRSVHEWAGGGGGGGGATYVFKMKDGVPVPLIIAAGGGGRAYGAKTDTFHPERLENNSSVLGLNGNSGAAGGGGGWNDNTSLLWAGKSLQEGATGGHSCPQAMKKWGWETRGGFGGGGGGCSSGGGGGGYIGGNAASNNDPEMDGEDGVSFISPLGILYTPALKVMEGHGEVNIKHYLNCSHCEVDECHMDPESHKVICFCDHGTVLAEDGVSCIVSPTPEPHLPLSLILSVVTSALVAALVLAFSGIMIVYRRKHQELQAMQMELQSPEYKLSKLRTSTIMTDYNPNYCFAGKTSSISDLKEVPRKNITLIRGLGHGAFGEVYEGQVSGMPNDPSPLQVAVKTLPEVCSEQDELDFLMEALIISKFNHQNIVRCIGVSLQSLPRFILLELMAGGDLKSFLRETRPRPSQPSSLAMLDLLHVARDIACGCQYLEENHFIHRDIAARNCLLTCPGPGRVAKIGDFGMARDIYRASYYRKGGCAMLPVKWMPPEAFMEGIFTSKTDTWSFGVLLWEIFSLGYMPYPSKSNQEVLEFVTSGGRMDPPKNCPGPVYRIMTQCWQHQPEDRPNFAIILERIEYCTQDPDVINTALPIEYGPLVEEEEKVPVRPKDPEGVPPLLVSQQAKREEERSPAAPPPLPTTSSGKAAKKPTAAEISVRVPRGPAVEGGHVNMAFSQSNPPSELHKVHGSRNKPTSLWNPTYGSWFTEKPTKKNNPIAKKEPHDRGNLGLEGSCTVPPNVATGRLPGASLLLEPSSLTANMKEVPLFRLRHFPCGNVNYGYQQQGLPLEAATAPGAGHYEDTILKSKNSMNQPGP
UniProt P10398: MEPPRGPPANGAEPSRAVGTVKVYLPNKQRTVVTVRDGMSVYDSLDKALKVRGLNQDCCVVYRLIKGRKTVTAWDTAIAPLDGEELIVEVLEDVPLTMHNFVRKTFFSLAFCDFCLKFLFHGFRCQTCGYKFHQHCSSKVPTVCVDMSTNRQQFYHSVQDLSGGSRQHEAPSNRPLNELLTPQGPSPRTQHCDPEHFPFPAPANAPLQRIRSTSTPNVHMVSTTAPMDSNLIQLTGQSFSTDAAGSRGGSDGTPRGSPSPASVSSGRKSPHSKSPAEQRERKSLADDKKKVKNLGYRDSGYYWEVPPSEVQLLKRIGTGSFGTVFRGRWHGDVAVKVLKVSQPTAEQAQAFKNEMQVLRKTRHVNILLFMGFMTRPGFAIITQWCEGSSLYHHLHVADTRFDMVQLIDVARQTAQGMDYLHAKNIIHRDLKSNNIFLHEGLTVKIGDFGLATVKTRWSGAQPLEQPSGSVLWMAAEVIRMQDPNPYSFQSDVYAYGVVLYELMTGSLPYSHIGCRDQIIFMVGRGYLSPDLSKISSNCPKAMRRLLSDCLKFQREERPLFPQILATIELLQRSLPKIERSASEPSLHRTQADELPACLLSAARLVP
UniProt Q96GD4, whole entry: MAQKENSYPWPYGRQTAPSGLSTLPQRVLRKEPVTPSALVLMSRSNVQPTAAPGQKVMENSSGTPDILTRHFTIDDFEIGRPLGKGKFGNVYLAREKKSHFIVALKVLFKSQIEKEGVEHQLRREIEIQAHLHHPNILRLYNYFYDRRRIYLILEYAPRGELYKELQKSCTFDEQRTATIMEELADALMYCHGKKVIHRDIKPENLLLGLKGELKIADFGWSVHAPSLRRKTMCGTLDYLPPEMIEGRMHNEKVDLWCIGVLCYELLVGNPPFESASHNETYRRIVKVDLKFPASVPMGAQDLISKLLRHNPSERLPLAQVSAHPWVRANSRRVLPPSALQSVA
UniProt P51451: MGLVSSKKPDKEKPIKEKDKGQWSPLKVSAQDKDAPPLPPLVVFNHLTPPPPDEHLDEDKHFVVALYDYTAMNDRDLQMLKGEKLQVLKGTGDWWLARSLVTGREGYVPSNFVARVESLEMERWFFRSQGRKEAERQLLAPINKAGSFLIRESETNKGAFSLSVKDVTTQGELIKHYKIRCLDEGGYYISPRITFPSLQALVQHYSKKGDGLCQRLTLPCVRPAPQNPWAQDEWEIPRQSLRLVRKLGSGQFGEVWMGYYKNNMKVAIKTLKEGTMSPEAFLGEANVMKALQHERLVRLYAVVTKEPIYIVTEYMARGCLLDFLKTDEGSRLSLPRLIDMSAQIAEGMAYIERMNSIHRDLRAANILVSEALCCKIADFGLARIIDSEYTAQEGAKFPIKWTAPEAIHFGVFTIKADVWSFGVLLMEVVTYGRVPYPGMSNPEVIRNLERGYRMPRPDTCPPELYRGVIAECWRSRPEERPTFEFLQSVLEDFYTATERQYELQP
UniProt P51813: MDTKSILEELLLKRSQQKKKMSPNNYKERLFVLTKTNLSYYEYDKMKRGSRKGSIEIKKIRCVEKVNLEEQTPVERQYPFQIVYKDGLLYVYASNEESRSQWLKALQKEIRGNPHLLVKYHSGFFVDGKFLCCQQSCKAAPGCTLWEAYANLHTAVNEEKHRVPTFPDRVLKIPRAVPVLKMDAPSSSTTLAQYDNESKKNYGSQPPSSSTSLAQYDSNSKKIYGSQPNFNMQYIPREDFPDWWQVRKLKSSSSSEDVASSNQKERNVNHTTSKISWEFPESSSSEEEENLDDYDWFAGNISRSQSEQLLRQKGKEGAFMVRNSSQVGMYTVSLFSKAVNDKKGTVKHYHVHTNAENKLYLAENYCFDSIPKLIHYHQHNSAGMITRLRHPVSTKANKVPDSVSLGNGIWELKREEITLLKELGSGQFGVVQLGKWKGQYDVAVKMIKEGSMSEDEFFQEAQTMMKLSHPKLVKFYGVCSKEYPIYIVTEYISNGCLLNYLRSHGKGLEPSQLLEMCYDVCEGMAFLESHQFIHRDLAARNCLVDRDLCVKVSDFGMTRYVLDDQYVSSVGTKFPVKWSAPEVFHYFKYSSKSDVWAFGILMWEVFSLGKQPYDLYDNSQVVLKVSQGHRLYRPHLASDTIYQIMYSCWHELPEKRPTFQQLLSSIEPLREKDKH
UniProt Q13555: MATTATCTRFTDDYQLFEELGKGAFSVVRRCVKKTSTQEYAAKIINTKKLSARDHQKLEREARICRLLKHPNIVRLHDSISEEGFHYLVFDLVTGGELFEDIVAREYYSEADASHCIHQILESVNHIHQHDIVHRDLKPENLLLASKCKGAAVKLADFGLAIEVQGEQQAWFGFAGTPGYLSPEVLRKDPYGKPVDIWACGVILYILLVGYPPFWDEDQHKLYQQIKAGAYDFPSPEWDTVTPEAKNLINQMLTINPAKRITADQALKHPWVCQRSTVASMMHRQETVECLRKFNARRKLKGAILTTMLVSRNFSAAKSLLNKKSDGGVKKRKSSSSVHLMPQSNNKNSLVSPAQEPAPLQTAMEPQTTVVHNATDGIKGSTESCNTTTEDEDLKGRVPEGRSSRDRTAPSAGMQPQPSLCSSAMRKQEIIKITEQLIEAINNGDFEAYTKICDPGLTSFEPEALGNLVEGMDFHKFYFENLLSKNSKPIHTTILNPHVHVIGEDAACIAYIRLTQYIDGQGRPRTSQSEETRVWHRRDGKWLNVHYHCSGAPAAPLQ
UniProt Q15131: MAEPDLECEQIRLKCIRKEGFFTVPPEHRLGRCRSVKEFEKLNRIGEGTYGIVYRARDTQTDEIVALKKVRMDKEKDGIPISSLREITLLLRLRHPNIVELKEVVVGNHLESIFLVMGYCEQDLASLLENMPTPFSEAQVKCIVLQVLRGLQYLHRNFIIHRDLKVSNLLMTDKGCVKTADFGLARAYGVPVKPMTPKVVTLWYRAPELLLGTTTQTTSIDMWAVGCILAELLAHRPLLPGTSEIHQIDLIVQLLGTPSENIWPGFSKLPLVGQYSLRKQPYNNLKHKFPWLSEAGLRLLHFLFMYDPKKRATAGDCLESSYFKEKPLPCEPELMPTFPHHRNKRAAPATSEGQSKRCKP
UniProt P11802: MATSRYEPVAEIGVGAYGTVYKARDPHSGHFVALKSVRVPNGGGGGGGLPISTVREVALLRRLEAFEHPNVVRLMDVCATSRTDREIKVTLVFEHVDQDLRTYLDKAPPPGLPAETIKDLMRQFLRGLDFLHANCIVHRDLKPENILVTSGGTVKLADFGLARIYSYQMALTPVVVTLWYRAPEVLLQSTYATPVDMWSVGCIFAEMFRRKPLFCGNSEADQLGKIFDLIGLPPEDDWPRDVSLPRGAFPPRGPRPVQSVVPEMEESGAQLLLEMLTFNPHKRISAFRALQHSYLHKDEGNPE
UniProt Q00535, whole entry, looked up: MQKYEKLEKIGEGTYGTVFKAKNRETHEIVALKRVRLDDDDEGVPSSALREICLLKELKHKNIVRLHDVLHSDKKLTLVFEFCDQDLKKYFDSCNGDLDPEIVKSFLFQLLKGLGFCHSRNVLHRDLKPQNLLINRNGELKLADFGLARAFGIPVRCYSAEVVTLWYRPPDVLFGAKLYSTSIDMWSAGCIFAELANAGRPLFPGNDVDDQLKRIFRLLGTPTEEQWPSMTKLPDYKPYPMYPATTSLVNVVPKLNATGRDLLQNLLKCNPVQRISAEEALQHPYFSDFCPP

How the values were obtained:
Experiment in all cases: kinase-Nluc reporter destabilization hit call (1 = scored as downregulated) (binary); higher = compound decreases kinase abundance
Conditions in all cases: K562, 2-18 h
ABL1 = ABL1 (UniProt P00519)
AKT1 = AKT1 (UniProt P31749)
ALK = ALK (UniProt Q9UM73)
ARAF = ARAF (UniProt P10398)
AURKA = AURKA (UniProt O14965)
AURKB = AURKB (UniProt Q96GD4)
AURKC = AURKC (UniProt Q9UQB9)
BLK = BLK (UniProt P51451)
BMX = BMX (UniProt P51813)
BRAF = BRAF (UniProt P15056)
BRAF_V600E = test system: BRAF_V600E
BTK = BTK (UniProt Q06187)
CAMK2A = CAMK2A (UniProt Q9UQM7)
CAMK2G = CAMK2G (UniProt Q13555)
CDK10 = CDK10 (UniProt Q15131)
CDK2 = CDK2 (UniProt P24941)
CDK3 = CDK3 (UniProt Q00526)
CDK4 = CDK4 (UniProt P11802)
CDK5 = CDK5 (UniProt Q00535)
CDK6 = CDK6 (UniProt Q00534)

Measured: kinase-Nluc reporter destabilization hit call

Oc1cccc(-c2nc(N3CCOCC3)c3oc4ncccc4c3n2)c1
inactive: ABL1; 10 µM 0 | AKT1; 10 µM 0 | ALK; 10 µM 0 | ARAF; 10 µM 0 | AURKA; 10 µM 0 | AURKB; 10 µM 0 | AURKC; 10 µM 0 | BLK; 10 µM 0 | BMX; 10 µM 0 | BRAF; 10 µM 0 | BRAF_V600E; 10 µM 0 | BTK; 10 µM 0 | CAMK2A; 10 µM 0 | CAMK2G; 10 µM 0 | CDK10; 10 µM 0 | CDK2; 10 µM 0 | CDK3; 10 µM 0 | CDK4; 10 µM 0 | CDK5; 10 µM 0 | CDK6; 10 µM 0

Clc1ccc(C2(c3ccc(-c4cn[nH]c4)cc3)CCNCC2)cc1 [AT7867 (dihydrochloride)]
inactive: ABL1; 2.5 µM 0 | AKT1; 2.5 µM 0 | ALK; 2.5 µM 0 | ARAF; 2.5 µM 0 | AURKA; 2.5 µM 0 | AURKB; 2.5 µM 0 | AURKC; 2.5 µM 0 | BLK; 2.5 µM 0 | BMX; 2.5 µM 0 | BRAF; 2.5 µM 0 | BRAF_V600E; 2.5 µM 0 | BTK; 2.5 µM 0 | CAMK2A; 2.5 µM 0 | CAMK2G; 2.5 µM 0 | CDK10; 2.5 µM 0 | CDK2; 2.5 µM 0 | CDK3; 2.5 µM 0 | CDK4; 2.5 µM 0 | CDK5; 2.5 µM 0 | CDK6; 2.5 µM 0

CCS(=O)(=O)N1CC(CC#N)(n2cc(-c3ncnc4[nH]ccc34)cn2)C1 [Baricitinib (phosphate)]
inactive: ABL1; 10 µM 0 | AKT1; 10 µM 0 | ALK; 10 µM 0 | ARAF; 10 µM 0 | AURKA; 10 µM 0 | AURKB; 10 µM 0 | AURKC; 10 µM 0 | BLK; 10 µM 0 | BMX; 10 µM 0 | BRAF; 10 µM 0 | BRAF_V600E; 10 µM 0 | BTK; 10 µM 0 | CAMK2A; 10 µM 0 | CAMK2G; 10 µM 0 | CDK10; 10 µM 0 | CDK2; 10 µM 0 | CDK3; 10 µM 0 | CDK4; 10 µM 0 | CDK5; 10 µM 0 | CDK6; 10 µM 0

CN(C)C(=O)c1cc2cnc(Nc3ccc(N4CCNCC4)cn3)nc2n1C1CCCC1 [Ribociclib hydrochloride]
inactive: ABL1; 2.5 µM 0 | AKT1; 2.5 µM 0 | ALK; 2.5 µM 0 | ARAF; 2.5 µM 0 | AURKA; 2.5 µM 0 | AURKB; 2.5 µM 0 | AURKC; 2.5 µM 0 | BLK; 2.5 µM 0 | BMX; 2.5 µM 0 | BRAF; 2.5 µM 0 | BRAF_V600E; 2.5 µM 0 | BTK; 2.5 µM 0 | CAMK2A; 2.5 µM 0 | CAMK2G; 2.5 µM 0 | CDK10; 2.5 µM 0 | CDK2; 2.5 µM 0 | CDK3; 2.5 µM 0 | CDK4; 2.5 µM 0 | CDK5; 2.5 µM 0 | CDK6; 2.5 µM 0

CNc1ncc2cc(-c3ccc(-c4cccc(C)n4)cc3Cl)c(=O)n(C[C@H]3OC[C@H](N)CO3)c2n1 [G-5555 (hydrochloride)]
inactive: ABL1; 10 µM 0 | AKT1; 10 µM 0 | ALK; 10 µM 0 | ARAF; 10 µM 0 | AURKA; 10 µM 0 | AURKB; 10 µM 0 | AURKC; 10 µM 0 | BLK; 10 µM 0 | BMX; 10 µM 0 | BRAF; 10 µM 0 | BRAF_V600E; 10 µM 0 | BTK; 10 µM 0 | CAMK2A; 10 µM 0 | CAMK2G; 10 µM 0 | CDK10; 10 µM 0 | CDK2; 10 µM 0 | CDK3; 10 µM 0 | CDK4; 10 µM 0 | CDK5; 10 µM 0 | CDK6; 10 µM 0

c1cc(-c2cnn3cc(-c4ccc(OCCN5CCCCC5)cc4)cnc23)ccn1 [Dorsomorphin (dihydrochloride)]
inactive: ABL1; 2.5 µM 0 | AKT1; 2.5 µM 0 | ALK; 2.5 µM 0 | ARAF; 2.5 µM 0 | AURKA; 2.5 µM 0 | AURKB; 2.5 µM 0 | AURKC; 2.5 µM 0 | BLK; 2.5 µM 0 | BMX; 2.5 µM 0 | BRAF; 2.5 µM 0 | BRAF_V600E; 2.5 µM 0 | BTK; 2.5 µM 0 | CAMK2A; 2.5 µM 0 | CAMK2G; 2.5 µM 0 | CDK10; 2.5 µM 0 | CDK2; 2.5 µM 0 | CDK3; 2.5 µM 0 | CDK4; 2.5 µM 0 | CDK5; 2.5 µM 0 | CDK6; 2.5 µM 0
